In article PMC9095502 one finds binding data, which are given here for 8 molecules.

The chains behind the UniProt entries cited, without tags or fusion partners.
UniProt P11142: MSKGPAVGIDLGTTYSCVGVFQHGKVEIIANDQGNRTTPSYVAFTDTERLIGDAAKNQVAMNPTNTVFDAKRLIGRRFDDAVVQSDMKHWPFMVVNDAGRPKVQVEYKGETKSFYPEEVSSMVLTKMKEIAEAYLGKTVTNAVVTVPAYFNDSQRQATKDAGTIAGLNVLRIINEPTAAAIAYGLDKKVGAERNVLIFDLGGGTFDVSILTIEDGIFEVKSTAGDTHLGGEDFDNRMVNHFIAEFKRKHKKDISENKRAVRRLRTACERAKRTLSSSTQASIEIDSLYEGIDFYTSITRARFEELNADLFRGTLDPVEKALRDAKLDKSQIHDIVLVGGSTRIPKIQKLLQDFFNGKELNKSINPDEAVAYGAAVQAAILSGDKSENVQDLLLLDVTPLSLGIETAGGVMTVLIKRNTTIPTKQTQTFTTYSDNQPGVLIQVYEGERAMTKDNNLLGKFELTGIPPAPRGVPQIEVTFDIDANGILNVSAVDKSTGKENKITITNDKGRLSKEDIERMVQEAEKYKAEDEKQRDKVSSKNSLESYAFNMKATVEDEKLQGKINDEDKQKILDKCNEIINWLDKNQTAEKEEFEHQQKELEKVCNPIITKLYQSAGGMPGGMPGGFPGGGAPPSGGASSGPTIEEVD
UniProt Q00610: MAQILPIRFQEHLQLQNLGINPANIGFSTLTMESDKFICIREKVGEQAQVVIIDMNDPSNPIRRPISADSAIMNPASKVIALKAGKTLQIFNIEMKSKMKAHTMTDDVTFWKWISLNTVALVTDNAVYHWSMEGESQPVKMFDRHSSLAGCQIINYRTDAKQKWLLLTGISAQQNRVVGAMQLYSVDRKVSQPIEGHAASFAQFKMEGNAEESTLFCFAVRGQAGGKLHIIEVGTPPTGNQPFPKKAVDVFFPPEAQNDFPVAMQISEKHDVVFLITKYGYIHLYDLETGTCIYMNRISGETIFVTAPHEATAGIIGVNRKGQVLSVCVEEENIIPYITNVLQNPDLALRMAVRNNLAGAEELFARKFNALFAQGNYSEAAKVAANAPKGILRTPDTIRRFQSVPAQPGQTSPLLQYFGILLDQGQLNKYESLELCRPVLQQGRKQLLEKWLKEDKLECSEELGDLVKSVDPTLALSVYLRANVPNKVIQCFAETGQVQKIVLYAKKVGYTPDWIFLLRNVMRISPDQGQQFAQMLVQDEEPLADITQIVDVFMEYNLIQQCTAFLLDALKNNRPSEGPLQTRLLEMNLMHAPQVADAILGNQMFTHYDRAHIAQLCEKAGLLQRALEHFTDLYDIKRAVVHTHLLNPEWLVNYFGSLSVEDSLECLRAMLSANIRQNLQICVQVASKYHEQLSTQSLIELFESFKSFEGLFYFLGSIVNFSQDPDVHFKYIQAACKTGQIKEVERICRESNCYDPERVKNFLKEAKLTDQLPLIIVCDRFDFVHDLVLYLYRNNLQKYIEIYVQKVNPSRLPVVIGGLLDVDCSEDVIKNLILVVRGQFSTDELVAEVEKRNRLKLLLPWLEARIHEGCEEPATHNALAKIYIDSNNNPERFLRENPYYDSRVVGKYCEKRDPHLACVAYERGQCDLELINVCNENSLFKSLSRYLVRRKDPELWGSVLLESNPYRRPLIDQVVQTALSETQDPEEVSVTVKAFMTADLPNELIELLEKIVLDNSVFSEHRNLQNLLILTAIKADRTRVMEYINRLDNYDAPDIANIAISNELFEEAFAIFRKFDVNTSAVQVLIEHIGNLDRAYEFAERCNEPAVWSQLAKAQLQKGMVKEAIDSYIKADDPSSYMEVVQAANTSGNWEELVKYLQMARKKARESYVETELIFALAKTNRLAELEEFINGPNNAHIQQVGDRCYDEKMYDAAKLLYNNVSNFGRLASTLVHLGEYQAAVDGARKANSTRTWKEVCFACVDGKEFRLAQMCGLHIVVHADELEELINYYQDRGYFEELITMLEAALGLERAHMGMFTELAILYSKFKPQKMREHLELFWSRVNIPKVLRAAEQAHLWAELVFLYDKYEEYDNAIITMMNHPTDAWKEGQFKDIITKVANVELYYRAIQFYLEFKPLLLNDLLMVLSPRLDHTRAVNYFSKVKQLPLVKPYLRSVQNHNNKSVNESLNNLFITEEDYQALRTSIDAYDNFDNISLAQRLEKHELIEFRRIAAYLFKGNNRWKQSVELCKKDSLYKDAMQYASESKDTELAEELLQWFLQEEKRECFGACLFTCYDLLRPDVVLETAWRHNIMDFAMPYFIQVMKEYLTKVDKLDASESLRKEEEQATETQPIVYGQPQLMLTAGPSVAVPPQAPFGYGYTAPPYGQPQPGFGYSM
UniProt P21707: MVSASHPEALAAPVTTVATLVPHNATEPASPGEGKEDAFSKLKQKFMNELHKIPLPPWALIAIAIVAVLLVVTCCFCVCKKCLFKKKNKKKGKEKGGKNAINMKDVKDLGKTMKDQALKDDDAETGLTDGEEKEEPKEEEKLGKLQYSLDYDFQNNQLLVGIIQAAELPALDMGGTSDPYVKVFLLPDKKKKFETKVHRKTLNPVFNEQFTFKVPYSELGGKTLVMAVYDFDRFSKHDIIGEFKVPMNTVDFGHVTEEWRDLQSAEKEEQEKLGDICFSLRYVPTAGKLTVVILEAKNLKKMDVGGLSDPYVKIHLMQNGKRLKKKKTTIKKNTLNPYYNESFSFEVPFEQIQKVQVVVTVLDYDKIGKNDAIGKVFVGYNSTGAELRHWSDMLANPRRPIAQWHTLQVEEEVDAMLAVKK
UniProt P11275: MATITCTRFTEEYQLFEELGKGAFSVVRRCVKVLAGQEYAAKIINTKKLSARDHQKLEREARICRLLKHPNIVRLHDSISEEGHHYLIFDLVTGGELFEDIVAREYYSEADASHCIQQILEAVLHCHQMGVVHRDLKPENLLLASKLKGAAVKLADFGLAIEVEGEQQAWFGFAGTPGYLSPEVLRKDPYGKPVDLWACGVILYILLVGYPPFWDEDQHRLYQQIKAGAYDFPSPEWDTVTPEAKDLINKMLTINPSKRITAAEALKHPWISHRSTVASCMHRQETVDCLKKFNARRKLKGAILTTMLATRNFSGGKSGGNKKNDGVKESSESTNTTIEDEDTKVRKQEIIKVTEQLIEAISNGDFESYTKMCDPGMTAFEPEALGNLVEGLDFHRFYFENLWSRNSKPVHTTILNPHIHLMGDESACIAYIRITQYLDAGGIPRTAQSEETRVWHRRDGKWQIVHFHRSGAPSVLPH

These are yes or no findings as the source states them, for the method shown. In cells and extracts the contact can be indirect. Some results given as binding are weak or reduced against the parent protein; the word gives no strength. Sequences can lack the tags named with a protein.

In the assay the target is T1, myc-DGKθ (UniProt P52824).
T1 sequence: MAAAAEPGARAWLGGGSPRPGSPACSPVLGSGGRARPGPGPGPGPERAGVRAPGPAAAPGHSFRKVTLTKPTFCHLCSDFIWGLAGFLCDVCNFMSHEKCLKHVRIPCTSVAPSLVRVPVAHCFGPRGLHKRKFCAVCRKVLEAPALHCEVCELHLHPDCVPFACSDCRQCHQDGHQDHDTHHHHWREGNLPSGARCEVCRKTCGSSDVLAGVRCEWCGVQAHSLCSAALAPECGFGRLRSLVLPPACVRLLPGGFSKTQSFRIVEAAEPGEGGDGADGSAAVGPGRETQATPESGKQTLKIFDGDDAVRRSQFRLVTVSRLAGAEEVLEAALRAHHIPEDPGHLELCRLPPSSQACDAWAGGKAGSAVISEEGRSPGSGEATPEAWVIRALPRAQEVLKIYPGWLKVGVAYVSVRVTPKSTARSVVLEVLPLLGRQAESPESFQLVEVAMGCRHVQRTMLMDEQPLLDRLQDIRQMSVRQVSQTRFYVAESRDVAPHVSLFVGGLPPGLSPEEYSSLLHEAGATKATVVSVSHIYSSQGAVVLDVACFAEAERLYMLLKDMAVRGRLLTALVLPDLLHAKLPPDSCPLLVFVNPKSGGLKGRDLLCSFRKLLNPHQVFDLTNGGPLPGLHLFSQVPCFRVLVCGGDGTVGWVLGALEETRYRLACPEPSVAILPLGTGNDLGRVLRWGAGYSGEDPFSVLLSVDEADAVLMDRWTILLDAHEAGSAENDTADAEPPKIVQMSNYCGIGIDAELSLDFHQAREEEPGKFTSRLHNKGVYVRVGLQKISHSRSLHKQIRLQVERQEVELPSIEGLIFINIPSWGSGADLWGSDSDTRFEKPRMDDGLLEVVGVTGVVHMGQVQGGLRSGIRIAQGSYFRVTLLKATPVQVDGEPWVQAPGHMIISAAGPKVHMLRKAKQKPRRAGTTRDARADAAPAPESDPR
The experiment in a line: co-IP; HEK293FT transfected with pRK5-myc-DGKθ alone or with each interactor's plasmid; lysis in 1% NP40, 5 mM NaF, 5 mM NaPPi, 1 mM EDTA, 1 mM EGTA in PBS; anti-myc antibody and protein A/G beads; Western blot for the interactor.

As to GFP-HSPA8 (from UniProt P11142 1-646), the binding result is “binds”. HA-CLTC (from UniProt Q00610 1-1675): the binding result is “no binding”.

Take “Hsc70 (endogenous, HEK293FT) (from UniProt P11142 1-646)”: the binding entry is given as “binds”.

Syt1-pH (from UniProt P21707 1-421): the binding result was “binds”.

With mGFP-Camk2a (from UniProt P11275 1-478), the binding entry is reported as “binds”.

B1: Syngr1-GFP (protein, UniProt O43759 1-233)
chain: MEGGAYGAGKAGGAFDPYTLVRQPHTILRVVSWLFSIVVFGSIVNEGYLNSASEGEEFCIYNRNPNACSYGVAVGVLAFLTCLLYLALDVYFPQISSVKDRKKAVLSDIGVSAFWAFLWFVGFCYLANQWQVSKPKDNPLNEGTDAARAAIAFSFFSIFTWAGQAVLAFQRYQIGADSALFSQDYMDPSQDSSMPYAPYVEPTGPDPAGMGGTYQQPANTFDTEPQGYQSQGY
For B1, the binding entry is listed as “binds”.

B2: HA-Stx7 (protein, UniProt O15400 1-261)
chain: MSYTPGVGGDPAQLAQRISSNIQKITQCSVEIQRTLNQLGTPQDSPELRQQLQQKQQYTNQLAKETDKYIKEFGSLPTTPSEQRQRKIQKDRLVAEFTTSLTNFQKVQRQAAEREKEFVARVRASSRVSGSFPEDSSKERNLVSWESQTQPQVQVQDEEITEDDLRLIHERESSIRQLEADIMDINEIFKDLGMMIHEQGDVIDSIEANVENAEVHVQQANQQLSRAADYQRKSRKTLCIIILILVIGVAIISLIIWGLNH
For the molecule B2, the binding entry is “binds”.

B3: HA-dynamin1 (protein, UniProt Q05193 1-864)
chain: MGNRGMEDLIPLVNRLQDAFSAIGQNADLDLPQIAVVGGQSAGKSSVLENFVGRDFLPRGSGIVTRRPLVLQLVNATTEYAEFLHCKGKKFTDFEEVRLEIEAETDRVTGTNKGISPVPINLRVYSPHVLNLTLVDLPGMTKVPVGDQPPDIEFQIRDMLMQFVTKENCLILAVSPANSDLANSDALKVAKEVDPQGQRTIGVITKLDLMDEGTDARDVLENKLLPLRRGYIGVVNRSQKDIDGKKDITAALAAERKFFLSHPSYRHLADRMGTPYLQKVLNQQLTNHIRDTLPGLRNKLQSQLLSIEKEVEEYKNFRPDDPARKTKALLQMVQQFAVDFEKRIEGSGDQIDTYELSGGARINRIFHERFPFELVKMEFDEKELRREISYAIKNIHGIRTGLFTPDMAFETIVKKQVKKIREPCLKCVDMVISELISTVRQCTKKLQQYPRLREEMERIVTTHIREREGRTKEQVMLLIDIELAYMNTNHEDFIGFANAQQRSNQMNKKKTSGNQDEILVIRKGWLTINNIGIMKGGSKEYWFVLTAENLSWYKDDEEKEKKYMLSVDNLKLRDVEKGFMSSKHIFALFNTEQRNVYKDYRQLELACETQEEVDSWKASFLRAGVYPERVGDKEKASETEENGSDSFMHSMDPQLERQVETIRNLVDSYMAIVNKTVRDLMPKTIMHLMINNTKEFIFSELLANLYSCGDQNTLMEESAEQAQRRDEMLRMYHALKEALSIIGDINTTTVSTPMPPPVDDSWLQVQSVPAGRRSPTSSPTPQRRAPAVPPARPGSRGPAPGPPPAGSALGGAPPVPSRPGASPDPFGPPPQVPSRPNRAPPGVPSRSGQASPSRPESPRPPFDL
With B3, the binding entry was “binds”.
